Test: TCO click ability (analytical HPLC)
Format: physicochemical
Details: formulated 18F-tetrazine added to TCO (1 mg/mL) in PBS

With `O=C(O)CN(CC(=O)O)Cc1cc(F)cc(-c2nncnn2)c1` [UB-108, 1-Carboxy-N-(carboxymethyl)-N-(3-fluoro-5-(1,2,4,5-tetrazin-3-yl)benzyl)methanaminium 2,2,2-trifluoroacetate] the “TCO click ability (reaction with TCO)” value was “reacted immediately”.

For `O=C(O)CNCc1cc(F)cc(-c2nncnn2)c1` [UB-137, 1-Carboxy-N-(3-fluoro-5-(1,2,4,5-tetrazin-3-yl)benzyl)methanaminium 2,2,2-trifluoroacetate], the “TCO click ability (reaction with TCO)” value was “reacted immediately”.

Reference: patent US20240287104A1, “NUCLIDE LABELLED H-TETRAZINES AND USE THEREOF FOR PET AND SPECT PRETARGETED IMAGING AND RADIONUCLIDE THERAPY” (RIGSHOSPITALET, priority 2020, published 2024)
